Results of single-concentration screens

The values are deposited in ChEMBL (CHEMBL3988442, “University of Dundee, Small-Polar-MMV Screening Library” (2021)).

Mtb glucose medium: 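Whole-cell growth test on Mycobacterium tuberculosis, read after 3 days in glucose-containing 7H9 medium; the read-out is not stated. Compounds at 50 µM. The record gives no direction; compounds that gave an IC50 in retests scored well above the rest, so higher reads as more growth inhibition. Size under these conditions: about 69,000 compounds, about 760 of them at 50% or above in at least one test.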
Mtb cholesterol medium: 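Growth of Mycobacterium tuberculosis over 4 days (cholesterol / DPPC medium with tyloxapol); the read-out is not stated. Compounds at 50 µM. The record gives no direction; compounds that gave an IC50 in retests scored well above the rest, so higher reads as more growth inhibition. Of about 69,000 compounds tested this way, about 370 (0.54%) reached 50% or more in at least one test.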

Each number is a percent effect as filed.
The controls that fix the scale are not given in the record; negative values are as filed.
The compounds are a random part of those screened.
Two or more numbers in one place are separate tests of the same structure; such repeats can differ widely.

For COCc1noc(CC2CN(c3ncnc4sc(C)c(C)c34)CCO2)n1 (stereo not given) the result was Mtb glucose medium: -30.18%; Mtb cholesterol medium: -17.3%.
For Cc1ncsc1C(=O)NC1CCN(CC(N)=O)CC1 the result was Mtb glucose medium: 12.14%; Mtb cholesterol medium: -0.6095%.
For Cc1cc(C(=O)N2CCCC(n3cccn3)C2)c(C)n1C1CC1 (stereo not given) the result was Mtb glucose medium: -2.834%; Mtb cholesterol medium: -8.98%.
For COc1cccc(COC(C)C(=O)NCc2nnc3n2CCC3)c1 (stereo not given) the result was Mtb glucose medium: 14.69% and 3.543%; Mtb cholesterol medium: -1.356%.
For Cc1nnc2n1CCN(CCOc1ccc(C(C)(C)C)cc1)C2 the result was Mtb glucose medium: 30.74%; Mtb cholesterol medium: -9.25%.
For O=C(c1ccc(C2CCCN2C(=O)c2ccoc2)s1)N1CCOCC1 (stereo not given) the result was Mtb glucose medium: 5.982% and 7.135%; Mtb cholesterol medium: -4.81% and 19.68%.
For O=C(O)C(F)(F)F.O=C(c1ccc2ccccc2n1)N1CCC2(CCN2c2ncccn2)C1 (stereo not given) the result was Mtb glucose medium: 0.9995%; Mtb cholesterol medium: 5.513%.
For O=C(CSc1ccc(Br)cc1)NS(=O)(=O)c1ccc2c(c1)OCCO2 the result was Mtb glucose medium: -29.11%; Mtb cholesterol medium: -13.53%.
For CN(C)CCNC(=O)c1ccc(S(=O)(=O)N[C@@H]2CCNC2)cc1 the result was Mtb glucose medium: -2.2%; Mtb cholesterol medium: -8.128%.
For CCC[C@H]1CN(c2nccc(OC)n2)C[C@@H]1NS(=O)(=O)N(C)C the result was Mtb glucose medium: 25.82% and 9.538%; Mtb cholesterol medium: -4.102%.
For O=C(C1CC2(CCNCC2)CN1)N1CCN(c2ccccc2)CC1 (stereo not given) the result was Mtb glucose medium: -18.11%; Mtb cholesterol medium: -17.9%.
For CN(Cc1cc2n(n1)CCCNC2)Cc1ccno1 the result was Mtb glucose medium: 28.66%; Mtb cholesterol medium: 3.453%.
For O=C(NCC1(c2ccc(F)cc2)CCC1)N1CCC2(CCOCC2)C1 the result was Mtb glucose medium: 2.586% and -8.076%; Mtb cholesterol medium: -27.27%.
For O=C(NCC1Cn2nnc(-c3cccc(F)c3)c2CO1)c1ccc[nH]1 (stereo not given) the result was Mtb glucose medium: -13.39%; Mtb cholesterol medium: -12.62%.
For CSCc1cccc(S(=O)(=O)N2CCSCC2)c1 the result was Mtb glucose medium: 7.871%; Mtb cholesterol medium: -2.243%.
For O=c1n(Cc2ccc(C(F)(F)F)cc2)nc2ncccn12 the result was Mtb glucose medium: 25.28%; Mtb cholesterol medium: 19.05%.
For Cc1nc(CN2CCCC(N(C)Cc3nc(CC(C)C)no3)C2)no1 (stereo not given) the result was Mtb glucose medium: -26%; Mtb cholesterol medium: 9.038%.
For COc1ccc(C(=O)C2CCCN(Cc3ccncc3)C2)cc1OC (stereo not given) the result was Mtb glucose medium: -11.35%; Mtb cholesterol medium: 8.53%.
For [H][C@]12COC[C@@H](NS(C)(=O)=O)[C@@]1([H])CN(Cc1ccoc1)C2 the result was Mtb glucose medium: -12.62%; Mtb cholesterol medium: -25.92%.
For CC(=O)N1CCC2(CCN(C(=O)c3ccc(Cl)c(C(F)(F)F)c3)C2)C1 (stereo not given) the result was Mtb glucose medium: 3.055%; Mtb cholesterol medium: -18.9%.
For COCCN1CCC2(CC1)CC(COC)N(c1ncccn1)C2.O=C(O)C(F)(F)F.O=C(O)C(F)(F)F (stereo not given) the result was Mtb glucose medium: -10.42%; Mtb cholesterol medium: -3.936%.
For Cc1cc(C)n(C2CCCN(C(=O)Cn3ccc(=O)n(C)c3=O)C2)n1 (stereo not given) the result was Mtb glucose medium: -7.759%; Mtb cholesterol medium: -8.105%.
For CCOC(=O)c1coc(N2CCN(Cc3cccc(OC)c3)C(=O)C2)n1 the result was Mtb glucose medium: -24.18% and 1.962%; Mtb cholesterol medium: -12.25%.
For CN1N=C(C(=O)N2CCCC(CCc3ccccc3F)C2)CCC1=O (stereo not given) the result was Mtb glucose medium: 11.47%; Mtb cholesterol medium: 5.229%.
For COc1cccc2c1OCC(NCc1cnn(-c3ccccc3F)c1)C2 (stereo not given) the result was Mtb glucose medium: 6.025%; Mtb cholesterol medium: 20.91%.
For Cc1nc(CN(C)Cc2nc(-c3sccc3C)oc2C)no1 the result was Mtb glucose medium: 17.97%; Mtb cholesterol medium: 10.91% and -0.464%.
For COCc1nnc(C(=O)N2CCC(N3CCCCC3)CC2)o1 the result was Mtb glucose medium: -33.51%; Mtb cholesterol medium: -31.08% and -8.852%.
For Cc1nc(C2CCCN(C(=O)c3cc(Cl)c[nH]3)C2)no1 (stereo not given) the result was Mtb glucose medium: 19.21%; Mtb cholesterol medium: 1.981%.
For CN1CCOC(CNCc2c(Cl)nc3ccccn23)C1 (stereo not given) the result was Mtb glucose medium: 21.77%; Mtb cholesterol medium: 15.87%.
For Cc1cnn(CC2CCCN2C(=O)CCc2ccncc2)c1 (stereo not given) the result was Mtb glucose medium: 18.24%; Mtb cholesterol medium: 4.724%.
For c1cn(Cc2nnc(C3CCN(C4CCCCC4)CC3)n2C2CC2)cn1 the result was Mtb glucose medium: -17.02%; Mtb cholesterol medium: -0.7552% and 1.487%.
For Cn1cnc2cc(CCC(=O)Nc3n[nH]c(C4CCCO4)n3)ccc21 (stereo not given) the result was Mtb glucose medium: 12.15% and -6.122%; Mtb cholesterol medium: 11.05%.
For CCOCCN1CCN(CC(O)c2ccc(C)c(C)c2)CC1 (stereo not given) the result was Mtb glucose medium: -5.802%; Mtb cholesterol medium: -21.45%.
For Cc1ccsc1CNc1ccc(C(=O)N2CCNC(=O)C2)cn1 the result was Mtb glucose medium: 8.918% and -6.205%; Mtb cholesterol medium: 14.59%.
For Cc1nc(-c2ccccc2)n(CC(=O)N(C(C)C)C(C)C)n1 the result was Mtb glucose medium: 16.54%; Mtb cholesterol medium: 7.21%.
For Cn1ccnc1CN1CCOCC(Cc2ccccn2)C1 (stereo not given) the result was Mtb glucose medium: 38.05%; Mtb cholesterol medium: -2.307%.
For CCc1cnc(CN(C)C2CCN(Cc3nnc(C4CC4)n3C)C2)o1 (stereo not given) the result was Mtb glucose medium: 14.38% and -4.499%; Mtb cholesterol medium: -1.166%.
For O=C(O)C(F)(F)F.[H][C@@]12CCN(Cc3c(C)noc3C)C[C@]1(C(=O)NCC1CC1)CCO2 the result was Mtb glucose medium: -26.1%; Mtb cholesterol medium: 0.9139%.
For O=C(CSC1CCc2ccccc2NC1=O)NCCc1ccco1 (stereo not given) the result was Mtb glucose medium: -20.42%; Mtb cholesterol medium: -17.01%.
For CCc1noc(CN(CCC2CCCCC2)CC(N)=O)n1 the result was Mtb glucose medium: 19.39%; Mtb cholesterol medium: 25.41%.
For CC(C)Cc1noc(CN2CCN(c3nccs3)CC2)n1 the result was Mtb glucose medium: -7.774%; Mtb cholesterol medium: -0.1302%.
For CC(c1ccccc1F)N(CC(N)=O)C1CC1 (stereo not given) the result was Mtb glucose medium: -15.61%; Mtb cholesterol medium: 5.421%.
For CCOc1cc(CN(C)CCC#N)ccc1OC(F)F the result was Mtb glucose medium: 19.71%; Mtb cholesterol medium: 0.4549%.
For [H][C@@]12C[C@@H](Oc3ccccc3)C[C@]1([H])CN(Cc1cnccn1)C2 the result was Mtb glucose medium: 18.41%; Mtb cholesterol medium: 8.077%.

The last 4 entries again:

CC(C)Cc1noc(CN2CCN(c3nccs3)CC2)n1 read Mtb glucose medium: -7.774%; Mtb cholesterol medium: -0.1302%.
CC(c1ccccc1F)N(CC(N)=O)C1CC1 (stereo not given) read Mtb glucose medium: -15.61%; Mtb cholesterol medium: 5.421%.
CCOc1cc(CN(C)CCC#N)ccc1OC(F)F read Mtb glucose medium: 19.71%; Mtb cholesterol medium: 0.4549%.
[H][C@@]12C[C@@H](Oc3ccccc3)C[C@]1([H])CN(Cc1cnccn1)C2 read Mtb glucose medium: 18.41%; Mtb cholesterol medium: 8.077%.